{"source": "patent US20220184240A1", "about": "“ORGANIC COMPOUNDS” (INTRA-CELLULAR THERAPIES, INC., priority 2019, published 2022)", "test_in_all_cases": "Saturation binding of radioligand to whole homogenate", "key": {"[1]": {"target": "PDE1 in dog heart homogenate", "details": "read-out: apparent Kd"}, "[2]": {"target": "T1, PDE1 in mouse striatum homogenate (Mus musculus, UniProt Q01065)", "T1 sequence (Q01065 1-535)": "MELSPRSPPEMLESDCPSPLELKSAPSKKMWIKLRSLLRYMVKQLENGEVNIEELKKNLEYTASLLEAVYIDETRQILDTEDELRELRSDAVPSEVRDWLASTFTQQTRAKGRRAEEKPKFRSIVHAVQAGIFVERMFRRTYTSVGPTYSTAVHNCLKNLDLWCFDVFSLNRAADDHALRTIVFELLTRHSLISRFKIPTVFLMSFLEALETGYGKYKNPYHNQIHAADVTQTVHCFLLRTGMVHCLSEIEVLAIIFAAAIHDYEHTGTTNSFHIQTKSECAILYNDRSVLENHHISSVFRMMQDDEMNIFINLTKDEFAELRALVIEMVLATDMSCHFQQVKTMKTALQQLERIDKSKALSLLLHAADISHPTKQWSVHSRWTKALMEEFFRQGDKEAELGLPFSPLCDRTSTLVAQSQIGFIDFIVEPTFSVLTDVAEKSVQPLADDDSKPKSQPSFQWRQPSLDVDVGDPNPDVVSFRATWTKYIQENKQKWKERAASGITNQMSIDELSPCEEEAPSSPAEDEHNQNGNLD", "details": "room temperature"}, "[3]": {"target": "PDE1 in mouse prefrontal cortex homogenate", "details": "read-out: apparent Kd"}}, "note": "For at least one compound, name, drawing or mass did not settle the structure."}
{"smiles": "[3H]C([3H])([3H])N1CCCC1c1ccc(Cn2nc3c(c2Nc2ccc(F)cc2)C(=O)N(C)C2=NC(C)(C)CN23)cc1", "note": "(stereo not drawn) [Compound 2, 3-((4-fluorophenyl)amino)-5-[3H]methyl-7,7-diimethyl-2-(4-(1-methylpyrrolidin-2-yl)benzyl)-7,8-dihydro-2H-imidazo[1,2-a]pyrazolo[4,3-e]pyrimidin-4(5H)-one]", "values": [{"measurement": "Kd", "setting": "[1]", "value": 0.41, "unit": "nM"}, {"measurement": "Bmax", "setting": "[2]", "value": 1252, "unit": "fmol/mg protein"}, {"measurement": "Kd", "setting": "[3]", "value": 1.32, "unit": "nM"}]}
